The subject of the experiment is CD2F1 mice, L1210 leukemia ip, survival T/C. Briefly: NCI In Vivo Anticancer Drug Screen. Data for tumor model L1210 Leukemia (intraperitoneal) in CD2F1 (CDF1) mice. Particulars: higher T/C = longer survival. In short, it runs like this: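 Implant tumor; dose compound or vehicle; measure endpoint in both groups; report treated divided by control.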
The mark [1] stands for this setting: T/C endpoint: mean survival time, dose: 2.5 mg/kg/injection, schedule: Q01DX009 (ip), vehicle: saline.
Where [2] appears, read: T/C endpoint: mean survival time, dose: 25.0 mg/kg/injection, schedule: Q01DX009 (ip), vehicle: saline with Tween-80.
[3] abbreviates: T/C endpoint: mean survival time, dose: 400.0 mg/kg/injection, schedule: Q04DX002 (ip), vehicle: saline with Tween-80.
Setting [4] is: T/C endpoint: mean survival time, dose: 400.0 mg/kg/injection, schedule: Q04DX003 (ip), vehicle: saline with Tween-80.
Setting [5] is: T/C endpoint: mean survival time, dose: 200.0 mg/kg/injection, schedule: Q04DX003 (ip), vehicle: saline with Tween-80.

The list does not hold the whole screen: it is rich in T/C values a quarter to a half above the control, in often repeated tests (any T/C) and in doses without a T/C. Further doses and runs are listed elsewhere. T/C is the treated group as % of the vehicle group. Some doses have a count of surviving animals in place of a T/C: the source holds a T/C of zero for them, seemingly a mark for toxic or unscored doses. Some survivor counts are full or nearly so, which does not show that the dose was tolerated: survival well below the control is almost never listed, so the zero probably covers shortened survival too. Survivors were counted at the toxicity check, usually on the fifth day, unless a day is given; later deaths do not show. Schedule codes are those of the source, taken here to give the interval after Q, in days (D) or hours (H), and the number of doses after X. Some doses were run more than once; their values stand side by side, smallest first. Some structures stand for samples that the source files as different forms (salt, stereo form or complex); doses refer to the form tested. For survival time, this PubChem deposit counts one and a half times the control or more as active, and values a quarter to a half above the control carry no call in these data; other NCI protocols may use other cut-offs.

On to `C/C=C(\C)c1cc(=O)c2c(C)cc3c(c2o1)C(=O)c1c(O)c(C2CC(C)(N(C)C)C(O)C(C)O2)cc(C2CC(N(C)C)C(O)C(C)O2)c1C3=O` (stereo unspecified), for which the T/C runs as follows: under setting [1], 127 % of control; (T/C endpoint: mean survival time, dose: 312.5 micrograms/kg/injection, schedule: Q01DX009 (ip), vehicle: saline) 129 % of control. Further, the survivor count was 5 of 6 under setting [1]; 0 of 6 and 4 of 6 (T/C endpoint: mean survival time, dose: 5.0 mg/kg/injection, schedule: Q01DX009 (ip), vehicle: saline); 5 of 6 (T/C endpoint: mean survival time, dose: 6.25 mg/kg/injection, schedule: Q01DX009 (ip), vehicle: saline with Tween-80); 3 of 6 (T/C endpoint: mean survival time, dose: 12.5 mg/kg/injection, schedule: Q01DX009 (ip), vehicle: saline with Tween-80); 0 of 6 under setting [2]; 0 of 3 (T/C endpoint: median survival time, dose: 25.0 mg/kg/injection, schedule: Q01DX001 (ip), vehicle: saline with Tween-80). Also, the survivor count is reported as 1 of 3 (T/C endpoint: median survival time, dose: 25.0 mg/kg/injection, schedule: Q04DX003 (ip), vehicle: saline with Tween-80); 0 of 3 (T/C endpoint: median survival time, dose: 50.0 mg/kg/injection, schedule: Q01DX001 (ip), vehicle: saline with Tween-80); 0 of 3 (T/C endpoint: median survival time, dose: 50.0 mg/kg/injection, schedule: Q04DX003 (ip), vehicle: saline with Tween-80); 0 of 3 (T/C endpoint: median survival time, dose: 100.0 mg/kg/injection, schedule: Q01DX001 (ip), vehicle: saline with Tween-80); 0 of 3 (T/C endpoint: median survival time, dose: 100.0 mg/kg/injection, schedule: Q04DX003 (ip), vehicle: saline with Tween-80); 0 of 3 (T/C endpoint: median survival time, dose: 200.0 mg/kg/injection, schedule: Q01DX001 (ip), vehicle: saline with Tween-80). For the setting “T/C endpoint: median survival time, dose: 200.0 mg/kg/injection, schedule: Q04DX003 (ip), vehicle: saline with Tween-80”, the survivor count is recorded as 0 of 3.

In the case of `C[N+]1(C)CCC(OC(=O)C(O)(c2ccccc2)C2CCCC2)C1` (stereo unspecified), the survivor count is, setting by setting: (T/C endpoint: mean survival time, dose: 25.0 mg/kg/injection, schedule: Q04DX003 (ip), vehicle: saline) 5 of 6; (T/C endpoint: mean survival time, dose: 200.0 mg/kg/injection, schedule: Q01DX001 (ip), vehicle: saline) 1 of 3; (T/C endpoint: mean survival time, dose: 400.0 mg/kg/injection, schedule: Q01DX001 (ip), vehicle: saline) 0 of 3. Moreover, the T/C (T/C endpoint: mean survival time, dose: 50.0 mg/kg/injection, schedule: Q04DX003 (ip), vehicle: saline) was 130 % of control.

For the compound `CC1CCC(N=C2OCCN2N=O)CC1` (stereo unspecified), the survivor count (T/C endpoint: mean survival time, dose: 200.0 mg/kg/injection, schedule: Q01DX001 (ip), vehicle: distilled water + Tween-80) is 0 of 6; the survivor count (T/C endpoint: mean survival time, dose: 400.0 mg/kg/injection, schedule: Q01DX001 (ip), vehicle: distilled water + Tween-80) was 0 of 6; the survivor count (T/C endpoint: mean survival time, dose: 800.0 mg/kg/injection, schedule: Q01DX001 (ip), vehicle: distilled water + Tween-80) was 0 of 6.

For the compound `CCOC(=O)Cc1c(C)[nH]c2c(C)ccc(C)c12`, the survivor count (T/C endpoint: mean survival time, dose: 200.0 mg/kg/injection, schedule: Q01DX001 (ip), vehicle: other) was 2 of 4 and the survivor count (T/C endpoint: mean survival time, dose: 400.0 mg/kg/injection, schedule: Q01DX001 (ip), vehicle: other) is reported as 3 of 4.

Take `N=S(=O)(c1ccccc1)c1ccccc1`: the survivor count under setting [3] was 1 of 3.

For `O=C(O)CC1(CC(=O)O)CCCCC1`, the survivor count under setting [4] is recorded as 6 of 6.

With `CC(C)(C)C1(C)CC1(Br)Br` (stereo unspecified), the survivor count under setting [4] is reported as 6 of 6.

Consider `CC(N)CCC(C)(C)O` (stereo unspecified), for which the survivor count (T/C endpoint: mean survival time, dose: 400.0 mg/kg/injection, schedule: Q04DX003 (ip), vehicle: saline) is listed as 0 of 6.

Turning to `CC(=O)CSc1ncnc2nc[nH]c12`, the T/C was 126 % of control (T/C endpoint: mean survival time, dose: 125.0 mg/kg/injection, schedule: Q01DX015 (ip), vehicle: saline) and 130 % of control (T/C endpoint: mean survival time, dose: 500.0 mg/kg/injection, schedule: Q01DX015 (ip), vehicle: saline).

For `COC(=O)c1ccc(C)cc1C(=O)OC`, the survivor count under setting [4] is 6 of 6.

Regarding `CC(=O)c1cccc(N=NN(C)C)c1`, the T/C is 133 % of control (T/C endpoint: mean survival time, dose: 46.0 mg/kg/injection, schedule: Q01DX009 (ip), vehicle: Klucel (hydroxypropylcellulose) (HPC)) and 145 % of control (T/C endpoint: mean survival time, dose: 69.0 mg/kg/injection, schedule: Q01DX009 (ip), vehicle: Klucel (hydroxypropylcellulose) (HPC)). For the same compound, the survivor count (T/C endpoint: mean survival time, dose: 240.0 mg/kg/injection, schedule: Q01DX009 (ip), vehicle: Klucel (hydroxypropylcellulose) (HPC)) is on record as 5 of 6.

`COC1=C(Br)[C@H](O)[C@](O)(CC#N)C=C1Br`: for the setting “T/C endpoint: mean survival time, dose: 140.0 mg/kg/injection, schedule: Q01DX009 (ip), vehicle: Klucel (hydroxypropylcellulose) (HPC)”, the survivor count is 4 of 6.

For the compound `NC(=O)/C=C/C(=O)c1c(Cl)cccc1Cl`, the survivor count under setting [2] is 0 of 10 and 0 of 6.

As to `CCCCC(NC(=O)CCl)C(=O)O` (stereo unspecified), the survivor count under setting [3] was 0 of 3.

On to `O=C(O)c1c(F)c(F)c(F)c(Br)c1F`, for which the survivor count under setting [4] was 2 of 6.

For the compound `N#CSCc1cc(=O)c(O)co1`, the survivor count is given as 2 of 6 (T/C endpoint: mean survival time, dose: 25.0 mg/kg/injection, schedule: Q04DX003 (ip), vehicle: saline with Tween-80); 0 of 6 (T/C endpoint: mean survival time, dose: 100.0 mg/kg/injection, schedule: Q04DX003 (ip), vehicle: saline with Tween-80); 0 of 6 under setting [5]; 0 of 6 under setting [4].

On to `CC(C)c1cc(O)c(C(C)C)cc1O`, for which the survivor count (T/C endpoint: mean survival time, dose: 300.0 mg/kg/injection, schedule: Q01DX001 (ip), vehicle: saline) is 0 of 6.

With `O=[N+]([O-])c1ccc(/C=N/O)o1`, the survivor count (T/C endpoint: mean survival time, dose: 225.0 mg/kg/injection, schedule: Q01DX001 (ip), vehicle: saline) is 3 of 6 and the survivor count (T/C endpoint: mean survival time, dose: 335.0 mg/kg/injection, schedule: Q01DX001 (ip), vehicle: saline) was 1 of 6.

Regarding `C=CCNC(=O)C[n+]1cccc(C(=O)Nc2ccccc2)c1`, the survivor count under setting [5] is 1 of 6 and the survivor count under setting [4] is 0 of 6.

Consider `CC1=NN(c2ccccc2)C(=O)C1(Br)Br`, for which the survivor count (T/C endpoint: mean survival time, dose: 100.0 mg/kg/injection, schedule: Q01DX009 (ip), vehicle: saline with Tween-80) is 1 of 6.

For the compound `CCCC(C(CC)CN(C)C)N(C)C` (stereo unspecified), the survivor count by setting is: (T/C endpoint: mean survival time, dose: 50.0 mg/kg/injection, schedule: Q04DX002 (ip), vehicle: saline with Tween-80) 2 of 6; (T/C endpoint: mean survival time, dose: 100.0 mg/kg/injection, schedule: Q04DX002 (ip), vehicle: saline with Tween-80) 0 of 6; (T/C endpoint: mean survival time, dose: 200.0 mg/kg/injection, schedule: Q01DX001 (ip), vehicle: saline with Tween-80) 0 of 6.

Turning to `CCC12CCC(=O)C=C1CCCC2=O` (stereo unspecified), the survivor count is, setting by setting: (T/C endpoint: mean survival time, dose: 200.0 mg/kg/injection, schedule: Q04DX003 (ip), vehicle: saline sonified) 2 of 6; (T/C endpoint: mean survival time, dose: 400.0 mg/kg/injection, schedule: Q04DX003 (ip), vehicle: saline sonified) 0 of 6.

On to `Cc1ccc(OCc2c(COc3ccc(Cl)cc3)sc3ccc(Cl)cc23)cc1`, for which the survivor count under setting [5] was 6 of 6.

As to `O=C(O)c1cc2ccc(Cl)cc2c2cc(C(F)(F)F)ccc12`, the survivor count is on record as 0 of 6 (T/C endpoint: mean survival time, dose: 75.0 mg/kg/injection, schedule: Q01DX009 (ip), vehicle: saline); 3 of 6 (T/C endpoint: mean survival time, dose: 150.0 mg/kg/injection, schedule: Q04DX003 (ip), vehicle: saline); 1 of 6 (T/C endpoint: mean survival time, dose: 300.0 mg/kg/injection, schedule: Q04DX003 (ip), vehicle: saline).

For the compound `O=[N+]([O-])c1ccc(/C=N/O)s1`, for the setting “T/C endpoint: mean survival time, dose: 50.0 mg/kg/injection, schedule: Q01DX009 (ip), vehicle: saline with Tween-80”, the survivor count is on record as 2 of 6.

As to `CC(c1ccccc1)n1cncc1C(=O)N1CCN(C)CC1` (stereo unspecified), the survivor count is listed as 4 of 6 (T/C endpoint: mean survival time, dose: 200.0 mg/kg/injection, schedule: Q01DX009 (ip), vehicle: saline with Tween-80) and 3 of 6 (T/C endpoint: mean survival time, dose: 400.0 mg/kg/injection, schedule: Q01DX009 (ip), vehicle: saline with Tween-80).

For `O=C(COc1ccc(Cl)cc1Cl)OCCI`, the survivor count under setting [3] is 0 of 3.
